Results: publication PMC11192907
No constants are given. Whether binding was seen depends on the method and setting. In cells and extracts the contact can be indirect. Some entries that bind do so weakly or less than the wild type. For part of these data: Tags and fused reporters may be left off the sequences shown.

By UniProt entry, the sequences of proteins in these tests, tags left out. Where a name states a change or a piece, a line headed by the entry shows the natural chain unless it says otherwise. Chains listed by the source or under a name are the forms on record and can include a tag or linker.
UniProt Q13283: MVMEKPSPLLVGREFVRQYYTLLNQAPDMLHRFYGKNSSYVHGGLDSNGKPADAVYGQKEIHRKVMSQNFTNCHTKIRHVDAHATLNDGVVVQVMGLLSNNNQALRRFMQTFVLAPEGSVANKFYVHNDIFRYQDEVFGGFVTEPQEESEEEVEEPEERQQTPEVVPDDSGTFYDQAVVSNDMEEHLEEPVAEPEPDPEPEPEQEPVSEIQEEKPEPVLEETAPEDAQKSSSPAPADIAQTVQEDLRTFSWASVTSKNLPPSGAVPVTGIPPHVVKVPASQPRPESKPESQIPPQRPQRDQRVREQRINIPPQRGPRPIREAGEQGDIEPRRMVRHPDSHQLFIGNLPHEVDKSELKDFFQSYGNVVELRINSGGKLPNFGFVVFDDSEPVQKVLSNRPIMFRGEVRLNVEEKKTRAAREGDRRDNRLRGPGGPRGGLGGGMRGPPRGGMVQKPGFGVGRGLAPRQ
HA-G3BP1-Δ1 lacking the domain of nuclear transport factor 2 (NTF2) (11-133 aa) (Q13283, form named): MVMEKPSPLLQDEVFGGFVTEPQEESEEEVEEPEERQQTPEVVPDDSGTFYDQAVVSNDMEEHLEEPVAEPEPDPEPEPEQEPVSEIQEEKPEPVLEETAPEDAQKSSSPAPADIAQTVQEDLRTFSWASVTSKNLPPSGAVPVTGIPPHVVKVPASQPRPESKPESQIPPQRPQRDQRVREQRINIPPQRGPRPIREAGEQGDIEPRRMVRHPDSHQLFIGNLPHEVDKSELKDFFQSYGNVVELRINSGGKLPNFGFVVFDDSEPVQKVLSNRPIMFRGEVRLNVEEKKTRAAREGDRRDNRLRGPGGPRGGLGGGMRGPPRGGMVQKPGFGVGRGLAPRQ

Legend:
Flag-USP21^WT [1] = molecular target: T1, Flag-USP21^WT (UniProt Q9UK80); assay: co-IP; HEK293T cells transfected with Flag-USP21^WT and HA-G3BP1^WT plasmids; IP with Flag or HA antibody, immunoblotting
T1 sequence: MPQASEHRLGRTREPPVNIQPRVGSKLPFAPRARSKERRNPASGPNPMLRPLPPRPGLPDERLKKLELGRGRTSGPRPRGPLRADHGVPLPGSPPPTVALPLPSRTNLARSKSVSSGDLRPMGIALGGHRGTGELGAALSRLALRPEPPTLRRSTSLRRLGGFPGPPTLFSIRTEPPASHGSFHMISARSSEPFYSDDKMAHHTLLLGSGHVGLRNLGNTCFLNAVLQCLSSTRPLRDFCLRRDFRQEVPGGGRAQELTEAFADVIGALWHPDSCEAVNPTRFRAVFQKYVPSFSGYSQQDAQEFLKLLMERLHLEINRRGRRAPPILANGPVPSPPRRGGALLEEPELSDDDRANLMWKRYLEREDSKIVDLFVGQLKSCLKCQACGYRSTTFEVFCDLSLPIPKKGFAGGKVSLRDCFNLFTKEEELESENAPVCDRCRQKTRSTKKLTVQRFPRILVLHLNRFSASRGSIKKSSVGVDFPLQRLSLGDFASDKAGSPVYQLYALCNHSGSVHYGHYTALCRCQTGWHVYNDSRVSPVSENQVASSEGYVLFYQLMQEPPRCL

Flag-USP21^WT [2] = molecular target: T1, Flag-USP21^WT; assay: co-IP; truncated USP21 with G3BP1^WT (Fig. 3E) or USP21^WT with truncated G3BP1 (Fig. 3F); IP with HA or Flag antibody, immunoblotting; cell line not stated
[3] = molecular target: T2, Ubiquitin Specific Peptidase 21 (USP21), endogenous (human (endogenous in KYSE-150 and Eca-109)) (UniProt Q9UK80); assay: co-IP; endogenous proteins in KYSE-150 and Eca-109 lysates; IP with antibody against G3BP1 or USP21, Protein A Agarose, immunoblotting
T2 sequence: T1 sequence

HA-G3BP1^WT (from UniProt Q13283 1-466)
binding (Flag-USP21^WT [1]): binds

HA-G3BP1-Δ1 lacking the domain of nuclear transport factor 2 (NTF2) (11-133 aa) (from UniProt Q13283 1-466)
binding (Flag-USP21^WT [2]): no binding

G3BP Stress Granule Assembly Factor 1 (G3BP1), endogenous (from UniProt Q13283 1-466)
binding [3]: binds
